Out of some 340,000 compounds screened, about 6,200 (1.8%) were called active. Inconclusive means that the source gave no clear call. Such entries were picked first, then a sample of the others. Calls come from the whole dose curve; as a rule, active = well fitted activation curve with a large enough effect; inconclusive = small, poorly fitted or top-dose-only effect; inactive = no such curve, though single readings can be large or run the other way. Where the call is inconclusive, the potency comes from a doubtful curve fit.
test: A quantitative high throughput screen for small molecules that induce DNA re-replication in SW480 colon adenocarcinoma cells.; note: nearly all actives have a fitted effect of over 55% in size; conditions: Hoechst DNA content imaging, 48 h; series mostly up to 46.1 µM
Procedure, shortened: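 SW480 cells exposed to compounds for 48 hr at 37 C, 5% CO2, then Hoechst-stained 40 min. Nuclear DNA content imaged by fluorescence scanning (405 nm excitation, 500-530 nm emission); re-replication scored as increased high-intensity nuclei.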
Potency is the fitted concentration of half-maximal effect.

Which Potency does the source give for `CCOc1ccc(NC(=O)c2cc(SC)ccc2Cl)cc1` here?
Its Potency is inconclusive: 23.1 µM [activator, single point].

With `CCOC(=O)Cc1csc(NS(=O)(=O)c2ccc(Br)cc2)n1` as the molecule, how does the Potency read?
Its Potency is inconclusive: 29.1 µM [activator, single point].

With `CCc1cc(C(=O)NNC(=O)CCN2CCN(c3ccccc3)CC2)sc1C` as the molecule, how does the Potency read?
The Potency was inconclusive: 6.51 µM [activator, single point].

With `CN(Cc1ccon1)C(=O)C1CCC(=O)N(CCc2ccc(Cl)cc2)C1` (stereo not given) as the molecule, how does the Potency read?
Its Potency is inconclusive: 29.1 µM [activator, single point].

Which Potency does the source give for `COc1cc(SC#N)ccc1N=Cc1c(C)[nH]n(-c2ccc(C)c(C)c2)c1=O` here?
The Potency was inconclusive: 29.1 µM [activator, single point].

Which Potency does the source give for `O=[N+]([O-])c1cccc(CNCc2ccccc2)c1` here?
The Potency was inconclusive: 3.66 µM [activator, single point].

For `COc1cc2c(cc1OC)C(c1cc3ccccc3oc1=O)=NC(C)(C)C2`, which Potency is on record?
Its Potency is inconclusive: 29.1 µM [activator, single point].

Which Potency does the source give for `COc1ccc(NC(=O)CSc2nnc(Cc3ccccc3)c(=O)n2N)cc1OC` here?
Its Potency is “inactive”.

With `COc1c2c(cc3oc(=O)c4c5ccc(O)cc5oc4c13)OC(C)(C)CC2` as the molecule, how does the Potency read?
Its Potency is inconclusive: 2.91 µM [activator, partial curve, poor fit].

With `CCOc1ccc(/C=N/N2C(=O)C(CC(=O)Nc3ccc(F)cc3F)SC2=NC)cc1OC` (stereo not given) as the molecule, how does the Potency read?
The Potency was inconclusive: 18.4 µM [activator, partial curve, poor fit].

For `CC(C)OCc1c(C(=O)OC/C(O)=C(\C#N)c2nc3ccccc3[nH]2)oc2ccccc12`, which Potency is on record?
The Potency was inconclusive: 29.1 µM [activator, single point].

For `CC(C)(C)OC(=O)NCCCC[C@H](NC(=O)c1nc[nH]c1C(=O)NCC(=O)OCc1ccccc1)C(=O)OC(C)(C)C`, which Potency is on record?
The Potency was “inactive”.

With `O=C(Nc1cc(-c2ccccc2)nn1C1CCCCC1)c1ccc(Cl)cc1` as the molecule, how does the Potency read?
Its Potency is inconclusive: 0.103 µM [activator, full curve, poor fit].

For `O=C(NCCc1cccs1)C12CN(Cc3ccccc3)CC1C(c1cccc([N+](=O)[O-])c1)=NO2` (stereo not given), which Potency is on record?
Its Potency is inconclusive: 0.103 µM [activator, full curve, poor fit].

Which Potency does the source give for `O=C(CCNS(=O)(=O)c1ccccc1C(F)(F)F)NCC(c1ccco1)N1CCCCC1` (stereo not given) here?
The Potency was inconclusive: 2.31 µM [activator, partial curve, poor fit].

Which Potency does the source give for `CS(=O)(=O)c1ccc2c(c1)sc1nc(=O)c(/C=C3/C=CC(=O)C(O)=C3)c(N)n12` here?
The Potency was inconclusive: 29.1 µM [activator, single point].

Which Potency does the source give for `C/C(=N\Nc1ccc([N+](=O)[O-])cc1)c1ccc(-n2nncc2C)cc1` here?
Its Potency is inconclusive: 23.1 µM [activator, single point].

With `O=C(Cc1ccccc1[N+](=O)[O-])Nc1cccc(S(=O)(=O)NC2=NCCCCC2)c1` as the molecule, how does the Potency read?
Its Potency is “inactive”.

With `COc1ccc(C(=O)NCc2nnc(SCC(=O)Nc3cc(C)cc(C)c3)o2)cc1OC` as the molecule, how does the Potency read?
The Potency was “inactive”.

For `COc1ccccc1NC(=O)C(C)OC(=O)Cc1ccsc1` (stereo not given), which Potency is on record?
Its Potency is “inactive”.

With `CCOc1ccccc1NC(=O)COC(=O)CC(C)(C)CC1=NS(=O)(=O)c2ccccc2N1` as the molecule, how does the Potency read?
Its Potency is inconclusive: 29.1 µM [activator, single point].

Which Potency does the source give for `CCCc1nc(SCC(=O)N2c3ccccc3CC2C)c2c(C)c(C)sc2n1` (stereo not given) here?
The Potency was inconclusive: 18.4 µM [activator, partial curve, poor fit].

Which Potency does the source give for `COc1ccccc1NC(=O)c1cc2ccc(O)cc2o/c1=N\O` here?
The Potency was inconclusive: 32.6 µM [activator, partial curve, poor fit].

With `Cc1ccc(CNC(C)(C)CO)cc1` as the molecule, how does the Potency read?
The Potency was inconclusive: 14.6 µM [activator, partial curve, poor fit].

For `COc1ccc(OC)c(S(=O)(=O)Nc2ccc(O)c3ccccc23)c1`, which Potency is on record?
The Potency was inconclusive: 16.4 µM [activator, single point].

Which Potency does the source give for `O=C1C(O)=CC(=C(c2ccccc2)c2ccccc2)c2ccccc21` here?
Its Potency is inconclusive: 29.1 µM [activator, single point].

With `CCOC(=O)c1nn(-c2ccc(Cl)cc2C)ccc1=O` as the molecule, how does the Potency read?
Its Potency is inconclusive: 18.4 µM [activator, single point].

With `O=C1COc2ccc(C(=O)COC(=O)c3cc(S(=O)(=O)N4CCOCC4)ccc3F)cc2N1` as the molecule, how does the Potency read?
The Potency was “inactive”.

For `O=[N+]([O-])c1cc(Cl)cc(/C=N/NC(=S)Nc2cc(S(=O)(=O)N3CCOCC3)ccc2Cl)c1O`, which Potency is on record?
Its Potency is inconclusive: 14.6 µM [activator, partial curve, poor fit].

For `CC(Oc1cccc(Cl)c1)C(=O)Nc1nc(-c2ccccn2)cs1` (stereo not given), which Potency is on record?
The Potency was active: 6.51 µM.

For `COC(=O)c1ccc(NC(=O)CCN2CCCCC2)cc1`, which Potency is on record?
The Potency was inconclusive: 29.1 µM [activator, single point].

Which Potency does the source give for `O=C1CCCc2oc3c(cc(NS(=O)(=O)c4ccc5c6c(cccc46)C(=O)N5)c4ccccc43)c21` here?
Its Potency is inconclusive: 29.1 µM [activator, single point].

With `Cc1cccc(N2CCN(C(=O)NCc3ccc(Cl)cc3)CC2)c1` as the molecule, how does the Potency read?
Its Potency is inconclusive: 29.1 µM [activator, single point].

Which Potency does the source give for `CC(Oc1ccccc1F)c1nnc(SCC(=O)c2c(N)n(C3CC3)c(=O)[nH]c2=O)o1` (stereo not given) here?
The Potency was “inactive”.

For `CC(=O)C1=C(C)NC(SCc2cccc([N+](=O)[O-])c2)=C(C#N)C1c1ccco1` (stereo not given), which Potency is on record?
The Potency was inconclusive: 5.8 µM [activator, single point].

Which Potency does the source give for `O=C(NCCNC(=O)c1ccco1)c1ccco1` here?
Its Potency is inconclusive: 5.17 µM [activator, partial curve, poor fit].

With `COc1ccc(Cc2nc3c([nH]2)c(=O)n(C)c(=O)n3C)cc1OC` as the molecule, how does the Potency read?
The Potency was “inactive”.

With `O=C(COC(=O)Cc1cccc(C(F)(F)F)c1)NCc1ccco1` as the molecule, how does the Potency read?
Its Potency is inconclusive: 0.103 µM [activator, full curve, poor fit].

For `O=C1CS/C(=N/N=C/c2ccccc2)N1c1ccc(O)cc1`, which Potency is on record?
The Potency was inconclusive: 4.11 µM [activator, single point].

For `Cn1nnc2cc(NC(=O)Nc3cccc(C(F)(F)F)c3)ccc21`, which Potency is on record?
Its Potency is inconclusive: 29.1 µM [activator, single point].
